Some entries share one result that the patent states for a list of compounds. For at least one compound, name, drawing or mass did not settle the structure.
System: human skin
Assay: Skin penetration test in diffusion cell
Format: in vitro ADME
Settings: for Presence in receptor fluid after 6 h: human skin (mostly epidermis), 37°, PBS receptor fluid, compound 3 donor in EtOH/PBS pH 7.4, others dispersed in olive oil, UV-analysis; for Presence in skin extract: skin parts extracted with DMSO after the penetration experiment, UV analysis
Description: The skin-penetration was evaluated based on the same method described on page 21 of WO2006/009451. FIG. 2 is a drawing of the skin penetration test equipment, wherein (1) indicates the position of the test sample (donor compound), (2) an ⅛″ OD× 1/32″ wall tubing, (3) the receptor input, (4) the receptor compartment and (5) the compound and receptor output that is subjected to analysis.
A compound 3 donor solution was prepared by dissolving 30 mg of compound 3 in 4 ml EtOH and 7 ml phosphate buffer (PBS) at pH 7.4. Compound 4, 6, 7, 8 and 9 donor solutions were prepared by dispersing 80 mg of these compounds in olive oil.
For each compound 4 pieces of human skin (Ø ca 3 cm, mostly epidermis) were applied on a dialysis membrane and mounted into the diffusion cell shown in the FIG. 2. The figure is a schematic drawing of the diffusion cell, wherein is indicated 1: donor compound, 2: receptor compartment, 3: receptor input, 4: compound and receptor output for analysis, 5: ⅛″ OD× 1/32″ wall tubing. The cells were mounted on a temperature controlling and stirring device. The temperature was kept at 37°. The receptor fluid was a PBS buffer. The receptor compartment was stirred magnetically. 400 μl of the donor solution was applied. The receptor fluid flowing at a speed of 1 ml/hr was collected into glass tubes (1 tube/2 hrs). After 20 hrs the penetration experiment was terminated.
Furthermore the skin parts were extracted with DMSO to dissolve any UV-absorber in the epidermis. The extracts were analysed by UV.

CCCCCCCCOC(=O)C(=CC=CN(CCCN(CCCCN(CCCN(C=CC=C(C(=O)OCCCCCCCC)S(=O)(=O)c1ccccc1)Cc1ccccc1)CCCN(C=CC=C(C(=O)OCCCCCCCC)S(=O)(=O)c1ccccc1)Cc1ccccc1)CCCN(C=CC=C(C(=O)OCCCCCCCC)S(=O)(=O)c1ccccc1)Cc1ccccc1)Cc1ccccc1)S(=O)(=O)c1ccccc1 [Compound 8]
Presence in receptor fluid after 6 h: − (a ‘−’ means that no detectable amount of the substance penetrated the skin (less than 5%))
Presence in skin extract: − (a ‘−’ means that no detectable amount of the substance penetrated the skin (less than 5%))

CCCCCCCCOC(=O)C(=CC=CN(CCN(C=CC=C(C(=O)OCCCCCCCC)S(=O)(=O)c1ccccc1)Cc1ccccc1)CCN(C=CC=C(C(=O)OCCCCCCCC)S(=O)(=O)c1ccccc1)Cc1ccccc1)S(=O)(=O)c1ccccc1 [Compound 9]
Presence in receptor fluid after 6 h: − (a ‘−’ means that no detectable amount of the substance penetrated the skin (less than 5%))
Presence in skin extract: − (a ‘−’ means that no detectable amount of the substance penetrated the skin (less than 5%))

CCCCCCCCOC(=O)C(=CC=CN(CCN(CCN(C=CC=C(C(=O)OCCCCCCCC)S(=O)(=O)c1ccccc1)Cc1ccccc1)CCN(C=CC=C(C(=O)OCCCCCCCC)S(=O)(=O)c1ccccc1)Cc1ccccc1)Cc1ccccc1)S(=O)(=O)c1ccccc1 [Compound 7]
Presence in receptor fluid after 6 h: − (a ‘−’ means that no detectable amount of the substance penetrated the skin (less than 5%))
Presence in skin extract: − (a ‘−’ means that no detectable amount of the substance penetrated the skin (less than 5%))

CCCCCCCCOC(=O)C(=CC=CN(CCCC)CCCCCCN(C=CC=C(C(=O)OCCCCCCCC)S(=O)(=O)c1ccccc1)CCCCCCN(C=CC=C(C(=O)OCCCCCCCC)S(=O)(=O)c1ccccc1)CCCC)S(=O)(=O)c1ccccc1 [Compound 6]
Presence in receptor fluid after 6 h: − (a ‘−’ means that no detectable amount of the substance penetrated the skin (less than 5%))
Presence in skin extract: − (a ‘−’ means that no detectable amount of the substance penetrated the skin (less than 5%))

Reference: patent US8318980B2, “UV absorbing compounds” (Fujifilm Manufacturing Europe B.V., priority 2007, dated 2012)
